Test results taken from PubChem BioAssay AID540256 (National Center for Advancing Translational Sciences (NCATS), 2011).
Several values for one entry are separate records, joined by “and”; a condition that tells them apart may be missing. Equal entries are not always repeated. The whole screen tested about 300,000 compounds, of which about 3,700 (1.2%) were called active. Inconclusive means that the source gave no clear call. Such entries were picked first, then a sample of the others. Calls follow the shape of the full dose curve; tested in HEK293 cells. Potencies beside an inconclusive call are fits to weak or partial responses and may not hold up.

assay: qHTS for Inhibitors of binding or entry into cells for Lassa Virus; conditions: Lassa virus pseudotype entry inhibition, cell reporter; activity change, negative = inhibition: at 37.9 µM (top of the series) unless noted; also: nearly all actives have a fitted effect of over 50% in size
% is scaled to controls: 0 for no effect and ±100 for the full control effect; potency is read from the fitted curve at half-maximal effect.

Row | Structure (SMILES) | Potency | activity change, negative = inhibition
1 | CCOc1cc(-n2cnnn2)c(OCC)cc1NC(=O)c1cnccn1 | inactive | 
2 | Cc1cc(-c2ccccc2)c2c3c(cn2n1)c(=O)n(C)c(=O)n3C | inconclusive: 25.9 µM [inhibitor, single point] | 
3 | CCC(Sc1nc2ncnc(N)c2[nH]1)C(=O)O (stereo not given) | inconclusive: 31.6 µM [activator, single point] | 
4 | COCC(=O)N/N=C\c1cccc(OC)c1OC/C=C/c1ccccc1 |  | inconclusive: 22.1% [activator] [at 46.1 µM]
5 | CCCCc1nn2c(=O)cc(COC(=O)c3ccccc3NC(=O)C(C)(C)C)nc2s1 | inconclusive: 3.16 µM [activator, full curve, poor fit] | 
6 | CCN(CC)S(=O)(=O)c1ccc(NC(=O)CC(NC(C)=O)c2ccccc2)cc1 (stereo not given) | inactive | 
7 | N#CC(C(=O)Nc1ccc(Cl)c(Cl)c1)=C1Nc2ccccc2N1 | inconclusive: 1.26 µM [activator, single point] | 
8 | O=C(/C=C/c1cccc(C(F)(F)F)c1)N1CCN(c2ccccn2)CC1 | inconclusive: 20 µM [inhibitor, partial curve, poor fit] | 
9 | COc1ccc(OCCCC(=O)NCCc2ccccc2)cc1 | inactive | 
10 | O=C(C1CCN(S(=O)(=O)c2ccc(F)cc2)CC1)N1CC=C(c2ccccc2)CC1 | inconclusive: 13 µM [inhibitor, single point] | 
11 | CN1CCC(C(=O)Nc2n[nH]c3nc(-c4ccc(O)cc4)c(Br)cc23)CC1 | active: 12.5 µM and active: 19.9 µM | 
12 | Cc1ccnc(NC(c2ccccc2F)c2ccc3cccnc3c2O)c1 (stereo not given) | inconclusive: 10 µM [inhibitor, partial curve, poor fit] | 
13 | NC(=S)n1[nH]c(-c2ccc([N+](=O)[O-])cc2)c(N=Nc2cccc(Cl)c2)c1=O | inconclusive: 7.94 µM [inhibitor, partial curve, poor fit] | 
14 | Cn1cnnc1SCC(=O)c1ccc2c(c1)OCCO2 | inactive | 
15 | N=c1n(Cc2ccccc2Cl)c2ccccc2n1CC(O)c1ccco1 (stereo not given) |  | inconclusive: 0.351% [activator]
16 | N#Cc1ccc(-c2cccs2)nc1SCc1ccc(Cl)cc1Cl | inconclusive: 2.82 µM [inhibitor, partial curve, poor fit] | 
17 | O=C(Nc1ccc(Cl)cc1)C1CCN(c2nc3ccccc3n3cccc23)CC1 | inactive | 
18 | CCCn1c(CCC(=O)O)ccc1-c1ccc(F)cc1 | inactive | 
19 | Cc1ccc(S(=O)(=O)n2nc(OC(=O)c3cccs3)cc2N)cc1 | inactive | 
20 | CCC(C(=O)Nc1cccc(-c2cn3cccnc3n2)c1)c1ccccc1 (stereo not given) | inconclusive: 35.5 µM [inhibitor, single point] | 
21 | COc1cccc(N2CCN(C(=O)c3ccc(CSc4nc5ccncc5[nH]4)cc3)CC2)c1 | inconclusive: 29.1 µM [inhibitor, single point] | 
22 | O=C(Cc1ccccc1[N+](=O)[O-])Nc1ccc2c(c1)OCO2 | inactive | 
23 | CC(C)c1ccc(NC(=O)N2CCCC2C(=O)Nc2ccc(-n3cnnn3)cc2)cc1 (stereo not given) | inactive | 

Row | Structure (SMILES) | Potency | activity change, negative = inhibition
24 | O=C(O)c1cc(-c2ccccc2)n(-c2ccccc2C(=O)O)n1 | inactive | 
25 | Cc1cccc(-c2nnc(-c3ccccc3)o2)c1 | inactive | 
26 | Cc1ccc(NCC(=O)N/N=C/c2ccc(-c3cccc(C(F)(F)F)c3)o2)cc1 | inconclusive: 17.8 µM [inhibitor, single point] | 
27 | CC1=C(C)C(=O)C(CCCCC#CCCCC#CCO)=C(C)C1=O | active: 20.6 µM | 
28 | Cc1ccc(-c2c[n+](Cc3cccc(Cl)c3)c3n2CCC3)cc1 | inconclusive: 1.12 µM [activator, partial curve, poor fit] | 
29 | Cc1csc(NC(=O)c2oc3ccccc3c2C)n1 | inconclusive: 7.94 µM [inhibitor, partial curve] | 
30 | COc1ccc(CC(=O)OCC(=O)N(C)C2CCS(=O)(=O)C2)cc1OC (stereo not given) |  | inconclusive: 25.1% [activator] [at 46.1 µM]
31 | Cc1ccc(NC(=O)c2nnn(-c3cc(C)cc(C)c3)c2N)cc1 | inactive | 
32 | O=C(Nc1ccc(Cl)cc1Cl)c1cc(S(=O)(=O)N2CCN(c3ccccc3F)CC2)ccc1F | inactive | 
33 | Cn1c(N)c(C(=O)COC(=O)c2ccc([N+](=O)[O-])o2)c(=O)n(C)c1=O | inactive | 
34 | CCc1ccc(-n2c(C)nnc2SCc2nc(-c3ccc(OC)cc3)no2)cc1 | inconclusive: 2.51 µM [inhibitor, full curve, poor fit] | 
35 | Cc1ccc(O)c(-c2cc(C(=O)Nc3ccc(S(=O)(=O)Nc4nc(C)cc(C)n4)cc3)[nH]n2)c1 | inconclusive: 22.4 µM [inhibitor, single point] | 
36 | CCOc1ccccc1NC(=O)CN1CCC(NC(=O)c2ccccc2)CC1 | inconclusive: 10 µM [inhibitor, partial curve] | 
37 | CCN(CC)CCC#CC(O)(c1ccccc1)C1CCCCC1 (stereo not given) | inconclusive: 4.47 µM [inhibitor, full curve, poor fit] | 
38 | COc1ccccc1CNC(=O)C1CCN(Cc2nc(-c3ccc(OC)c(OC)c3)oc2C)CC1 |  | inconclusive: 8.71% [activator] [at 46.1 µM]
39 | CCN1CCN(C(c2cc3cccc(C)c3[nH]c2=O)c2nnnn2Cc2ccccc2)CC1 (stereo not given) | inconclusive: 29.1 µM [activator, single point] | 
40 | COc1ccc(CNc2nc3c(c(=O)n(Cc4ccc(Cl)cc4)c(=O)n3C)n2C)cc1 | inconclusive: 25.9 µM [inhibitor, partial curve, poor fit] | 
41 | O=C(COC(=O)c1cccc(Br)c1)Nc1ccc2[nH]c(=O)[nH]c2c1 | inactive | 
42 | CC(N)(Cc1ccc(O)cc1)C(=O)O (stereo not given) | inconclusive: 29.1 µM [activator, single point] | 
43 | O=C(CN1CCN(c2ncccn2)CC1)NCc1ccccc1 | inconclusive: 0.631 µM [activator, full curve] | 
44 | O=C1C2C(C(=O)N1/N=C/c1cccc([N+](=O)[O-])c1)C1C=CC2C12CC2 (stereo not given) | inconclusive: 20.6 µM [activator, single point] | 
45 | Cc1ccccc1CNC(=O)c1ccc(-n2c(C)cc3c2CCCC3)cc1 | inconclusive: 35.5 µM [inhibitor, single point] | 

Entries from the list above that have a cyano group:
Row | Structure (SMILES) | Potency | activity change, negative = inhibition
7 | N#CC(C(=O)Nc1ccc(Cl)c(Cl)c1)=C1Nc2ccccc2N1 | inconclusive: 1.26 µM [activator, single point] | 
16 | N#Cc1ccc(-c2cccs2)nc1SCc1ccc(Cl)cc1Cl | inconclusive: 2.82 µM [inhibitor, partial curve, poor fit] | 
